Laboratory results: paper PMC9531180
Results are given in words; binding and its absence hold for the method and conditions named. Some binding calls cover weakened binding; strength is not graded here.

What was measured:
[1] = target: Alix (endogenous, human) (human (endogenous in MCF-7)) (UniProt Q8WUM4); assay: condition: only with DTT (16.7 mM in the sample buffer, reducing SDS-PAGE); reducing SDS-PAGE with Western blot; crude exosomes with 16.7 mM DTT in the Laemmli sample buffer, 95 °C 4 min; anti-Alix blot
[2] = target: Alix (endogenous, rat) (rat (endogenous in Z310)) (UniProt Q9QZA2); assay: non-reducing SDS-PAGE with Western blot; crude exosomes (100,000 x g) from culture media, isolated with 0, 0.5 or 1.0 mM DTT; no reducing agent in the sample buffer; anti-Alix or anti-FLAG blot
[3] = target: Alix (endogenous, rat) (rat (endogenous in Z310)) (UniProt Q9QZA2); assay: condition: only with DTT (16.7 mM in the sample buffer, reducing SDS-PAGE); reducing SDS-PAGE with Western blot; crude exosomes with 16.7 mM DTT in the Laemmli sample buffer, 95 °C 4 min; anti-Alix blot
[4] = target: T1, Alix (endogenous, human) (human (endogenous in MCF-7)), Q8WUM4; assay: non-reducing SDS-PAGE with Western blot; crude exosomes (100,000 x g) from culture media, isolated with 0, 0.5 or 1.0 mM DTT; no reducing agent in the sample buffer; anti-Alix or anti-FLAG blot; conditions: remark: other sources report otherwise
T1 chain: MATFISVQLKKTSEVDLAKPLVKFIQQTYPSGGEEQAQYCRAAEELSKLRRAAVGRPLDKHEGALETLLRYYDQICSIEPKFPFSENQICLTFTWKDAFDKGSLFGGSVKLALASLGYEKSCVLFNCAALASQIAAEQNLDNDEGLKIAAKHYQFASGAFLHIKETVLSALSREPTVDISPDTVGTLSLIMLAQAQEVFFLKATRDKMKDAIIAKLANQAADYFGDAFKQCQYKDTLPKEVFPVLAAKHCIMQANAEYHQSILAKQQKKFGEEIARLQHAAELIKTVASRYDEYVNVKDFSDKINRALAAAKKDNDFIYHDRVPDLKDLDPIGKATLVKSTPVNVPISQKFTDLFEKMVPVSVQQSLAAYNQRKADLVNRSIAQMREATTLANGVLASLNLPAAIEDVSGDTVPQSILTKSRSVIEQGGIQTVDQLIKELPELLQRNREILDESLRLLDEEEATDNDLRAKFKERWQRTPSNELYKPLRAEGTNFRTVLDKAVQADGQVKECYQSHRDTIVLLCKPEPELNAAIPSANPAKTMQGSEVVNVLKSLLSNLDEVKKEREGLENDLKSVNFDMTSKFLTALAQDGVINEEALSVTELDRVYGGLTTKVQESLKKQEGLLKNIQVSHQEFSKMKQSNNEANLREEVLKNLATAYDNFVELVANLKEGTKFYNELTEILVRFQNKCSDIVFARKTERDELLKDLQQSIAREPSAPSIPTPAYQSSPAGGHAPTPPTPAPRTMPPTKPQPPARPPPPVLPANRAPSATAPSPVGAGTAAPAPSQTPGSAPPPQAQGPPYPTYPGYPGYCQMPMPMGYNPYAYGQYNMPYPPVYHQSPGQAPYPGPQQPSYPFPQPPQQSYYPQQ

Q: How did the binding [1] turn out when “Alix (endogenous, human) (from UniProt Q8WUM4 1-868)” was run?
A: no binding

B1: Alix (endogenous, rat) (protein, UniProt Q9QZA2 1-873)
chain: MASFIWVQLKKTSEVDLAKPLVKFIQQTYPSGGEEQAQYCRAAEELSKLRRSALGRPLDKHEGALETLLRYYDQICSIEPKFPFSENQICLTFTWKDAFDKGSLFGGSVKLALASLGYEKSCVLFNCAALASQIAAEQNLDNDEGLKTAAKQYQFASGAFLHIKDTVLSALSREPTVDISPDTVGTLSLIMLAQAQEVFFLKATRDKMKDAIIAKLANQAADYFGDAFKQCQYKDALPKYFYFQEVFPTLAAKQCIMQANAEYHQSILAKQQKKFGEEIARLQHAAELIKNVASRYDEYVNVKDFSDKINRALAAAKKDNDFIYHDRVPDLKDLDPIGKATLVKPTPVNVPISQKFTDLFEKMVPVSVQQSLAVFSQRKADLVNRSIAQMREATTLANGVLASLNLPAAIEDVSGDTVPQSILTKSTAVVEQGGIQTVDQLIKELPELLQRNREILEESLRLLDEEEATDNDLRAKFKDRWQRTPSNDLYKPLRAEGAKFRAVLDKAVQADGQVKERYQSHRDTIALLCKPEPELNAAIPSANPAKTMQGSEVVNVLKSLLSNLDEIKKEREGLENDLKSVNFDMTSKFLTALAQDGVINEEALSVTELDRIYGGLTTKVQESLKKQEGLLKNIQVSHQEFSKMKQSNSEASLREEVLKNLATAYDNFVELVANLKEGTKFYNELTEILVRFQNKCSDIVFARKTERDELLKDLQQSIAREPSAPSIPPPAYQSSPAGGHATAPTPAPRTMPPAKPQPPARPPPPVLPANRVPPAAAATAPAGVGTASAAPPQTPGSAPPPQAQGPPYPTYPGYPGYCQMPMPMGYNPYTYGQYNMPYPPVYHQSPGQAPYPGPQQPTYPFPQPPQQSYYPQQ
Q: For B1, which binding [2] is on record?
A: binds

Q: And the binding [3]?
A: no binding

B2: Alix (endogenous, human), Q8WUM4 1-868 (protein)
chain: T1 chain
Q: With B2 as the molecule, how does the binding [4] read?
A: binds
